Source: paper PMC6876773
Numbering of substitutions follows the chain as printed. Names may count otherwise. Results are given in words; binding and its absence hold for the method and conditions named. A result given as binding can be weak or reduced; the word gives no strength.

B1: Mrc1 (two-hybrid) (protein, UniProt P25588 1-1096)
chain: MDDALHALSSLTAKKRTTTYKKVAVPILDENDNTNGNGPNDIDNPPELTGNGFLFANATLNRVKNRLEGKKAPEQNHNNGKDRSENSLPTQLISNLYDGGEELEKSEVKDNSYSEKNVSSSFTQTQRIPVSIQQDKVFNVPIHSVNDGKPTQLIKEDGLVNETSQALKTPLTTGRPGATQRIDSSGATSQTQPIKSIEPQSQIITTSSNHSNALSPKIPIIPTELIGTSPLFQSIQNRGPDTQMDVPPQTAHDEDKTQAIGIPQATHQEQKTQIDTVAQTLQDEVPHTLKIREIQSELASEDSKREKARNVEYKKPQKPIPTKKFFSKESFLADFDDSSSNEDDDIKLENAHPKPVQNDDELHENKSVELNLTDETRINEKRVPLLSSYANNLKREIDSSKCITLDLDSDSDEYGDDDMDSIKLSKDESVLPISQLSKATILNLKARLSKQNQKLSQRPNKSKDPKVDHNVLLNTLRKASRKQILDHQKEVIETKGLKLEDMAKEKEIVENLLEQEILRNKRIRQKEKRREKLEENDFQLNAHDSGSDSGSESSGFALSGNEIADYESSGSENDNRRESDSEKEDDEIILKQKKSHHVKHIINESDSDTEVEAKPKEKADESLPKRIAINLGHYGDNIGEDTDKFQETNVLDTQNIEEVMAERNTIENEVKDDVYVNEEADEAIRRQLIDKEKLQLKQKEKEHEAKIKELKKRGVTNFFEMEAEESEDEWHGIGGADGEGSDDYDSDLEKMIDDYSKNNFNPHEIREMLAAENKEMDIKMINKILYDIKNGGFRNKRAKNSLELELSDDDEDDVLQQYRLKRRELMRKRRLEIGDDAKLVKNPKSSAFFESMVEDIIEYKNPFGAEEEYNLDITSTATDLDTQDNSINVGDNTGNNEQKPVDQKNKKVIISEDFVQKSLSFLKSNNYEDFETDKELSRIQHGNDEAIEDLYTLKQNSSIKSFTNSQTDSTTSKTVNTIIDLEKRPEDEDEVENGDTSLVGVFKHPSIIKSFASRTDINDKFKEGNKTVKILKSYKTVGSSKASITYMGKTRKLIAPKRKTEGSHRYHHDHHNKKMKMKTKTKSNKLFESGQDSFDN
B2: Dpb3 (two-hybrid) (protein, UniProt P27344 1-201)
chain: MSNLVKEKAPVFPISKVKKIAKCDPEYVITSNVAISATAFAAELFVQNLVEESLVLAQLNSKGKTSLRLSLNSIEECVEKRDNFRFLEDAIKQLKKNSALDKKRELNMQPGRSDQEVVIEEPELHEDDGVEEEEEEDEVSEEEEPVHNEELLDDSKDQQNDKSTRSVASLLSRFQYKSALDVGEHSDSSDIEVDHTKSTDP
B3: Dpb4 (two-hybrid) (protein, UniProt Q04603 1-196)
chain: MPPKGWRKDAQGNYPTTSYIKEQENITIQDLLFPKSTIVNLAREVPQQSGKKLLINKDASLALQRGATVFVNHLLLFAREIAKSQDKKSCSVDDVLSALDHIGHSALKGPVRDKLDEYQAAVEQRKKEKLDSGEVDADGDIDMGEDKENVPVEKVKEHDEIEEQGDALQDVEESSEKKQKTESQDVETRVQNLEQT
B4: Pol2 (1128–2222), C-terminal half (domain or fragment, UniProt P21951 1128-2222)
chain: LDPSLEDLDIRTIIDWGYYRERLGSAIQKIITIPAALQGVSNPVPRVEHPDWLKRKIATKEDKFKQTSLTKFFSKTKNVPTMGKIKDIEDLFEPTVEEDNAKIKIARTTKKKAVSKRKRNQLTNEEDPLVLPSEIPSMDEDYVGWLNYQKIKWKIQARDRKRRDQLFGNTNSSRERSALGSMIRKQAESYANSTWEVLQYKDSGEPGVLEVFVTINGKVQNITFHIPKTIYMKFKSQTMPLQKIKNCLIEKSSASLPNNPKTSNPAGGQLFKITLPESVFLEEKENCTSIFNDENVLGVFEGTITPHQRAIMDLGASVTFRSKAMGALGKGIQQGFEMKDLSMAENERYLSGFSMDIGYLLHFPTSIGYEFFSLFKSWGDTITILVLKPSNQAQEINASSLGQIYKQMFEKKKGKIETYSYLVDIKEDINFEFVYFTDISKLYRRLSQETTKLKEERGLQFLLLLQSPFITKLLGTIRLLNQMPIVKLSLNEVLLPQLNWQPTLLKKLVNHVLSSGSWISHLIKLSQYSNIPICNLRLDSMDYIIDVLYARKLKKENIVLWWNEKAPLPDHGGIQNDFDLNTSWIMNDSEFPKINNSGVYDNVVLDVGVDNLTVNTILTSALINDAEGSDLVNNNMGIDDKDAVINSPSEFVHDAFSNDALNVLRGMLKEWWDEALKENSTADLLVNSLASWVQNPNAKLFDGLLRYHVHNLTKKALLQLVNEFSALGSTIVYADRNQILIKTNKYSPENCYAYSQYMMKAVRTNPMFSYLDLNIKRYWDLLIWMDKFNFSGLACIEIEEKENQDYTAVSQWQLKKFLSPIYQPEFEDWMMIILDSMLKTKQSYLKLNSGTQRPTQIVNVKKQDKEDSVENSLNGFSHLFSKPLMKRVKKLFKNQQEFILDPQYEADYVIPVLPGSHLNVKNPLLELVKSLCHVMLLSKSTILEIRTLRKELLKIFELREFAKVAEFKDPSLSLVVPDFLCEYCFFISDIDFCKAAPESIFSCVRCHKAFNQVLLQEHLIQKLRSDIESYLIQDLRCSRCHKVKRDYMSAHCPCAGAWEGTLPRESIVQKLNVFKQVAKYYGFDILLSCIADLTI
B5: Pol2 N-terminal (1–1265) (domain or fragment, UniProt P21951 1-1265)
chain: MMFGKKKNNGGSSTARYSAGNKYNTLSNNYALSAQQLLNASKIDDIDSMMGFERYVPPQYNGRFDAKDIDQIPGRVGWLTNMHATLVSQETLSSGSNGGGNSNDGERVTTNQGISGVDFYFLDEEGGSFKSTVVYDPYFFIACNDESRVNDVEELVKKYLESCLKSLQIIRKEDLTMDNHLLGLQKTLIKLSFVNSNQLFEARKLLRPILQDNANNNVQRNIYNVAANGSEKVDAKHLIEDIREYDVPYHVRVSIDKDIRVGKWYKVTQQGFIEDTRKIAFADPVVMAFDIETTKPPLKFPDSAVDQIMMISYMIDGEGFLITNREIISEDIEDFEYTPKPEYPGFFTIFNENDEVALLQRFFEHIRDVRPTVISTFNGDFFDWPFIHNRSKIHGLDMFDEIGFAPDAEGEYKSSYCSHMDCFRWVKRDSYLPQGSQGLKAVTQSKLGYNPIELDPELMTPYAFEKPQHLSEYSVSDAVATYYLYMKYVHPFIFSLCTIIPLNPDETLRKGTGTLCEMLLMVQAYQHNILLPNKHTDPIERFYDGHLLESETYVGGHVESLEAGVFRSDLKNEFKIDPSAIDELLQELPEALKFSVEVENKSSVDKVTNFEEIKNQITQKLLELKENNIRNELPLIYHVDVASMYPNIMTTNRLQPDSIKAERDCASCDFNRPGKTCARKLKWAWRGEFFPSKMDEYNMIKRALQNETFPNKNKFSKKKVLTFDELSYADQVIHIKKRLTEYSRKVYHRVKVSEIVEREAIVCQRENPFYVDTVKSFRDRRYEFKGLAKTWKGNLSKIDPSDKHARDEAKKMIVLYDSLQLAHKVILNSFYGYVMRKGSRWYSMEMAGITCLTGATIIQMARALVERVGRPLELDTDGIWCILPKSFPETYFFTLENGKKLYLSYPCSMLNYRVHQKFTNHQYQELKDPLNYIYETHSENTIFFEVDGPYKAMILPSSKEEGKGIKKRYAVFNEDGSLAELKGFELKRRGELQLIKNFQSDIFKVFLEGDTLEGCYSAVASVCNRWLDVLDSHGLMLEDEDLVSLICENRSMSKTLKEYEGQKSTSITTARRLGDFLGEDMVKDKGLQCKYIISSKPFNAPVTERAIPVAIFSADIPIKRSFLRRWTLDPSLEDLDIRTIIDWGYYRERLGSAIQKIITIPAALQGVSNPVPRVEHPDWLKRKIATKEDKFKQTSLTKFFSKTKNVPTMGKIKDIEDLFEPTVEEDNAKIKIARTTKKKAVSKRKRNQLTNEEDPLVLPSEIPSM
B6: Dpb2 (two-hybrid) (protein, UniProt P24482 1-689)
chain: MFGSGNVLPVKIQPPLLRPLAYRVLSRKYGLSIKSDGLSALAEFVGTNIGANWRQGPATIKFLEQFAAVWKQQERGLFIDQSGVKEVIQEMKEREKVEWSHEHPIQHEENILGRTDDDENNSDDEMPIAADSSLQNVSLSSPMRQPTERDEYKQPFKPESSKALDWRDYFKVINASQQQRFSYNPHKMQFIFVPNKKQNGLGGIAGFLPDIEDKVQMFLTRYYLTNDRVMRNENFQNSDMFNPLSSMVSLQNELSNTNRQQQSSSMSITPIKNLLGRDAQNFLLLGLLNKNFKGNWSLEDPSGSVEIDISQTIPTQGHYYVPGCMVLVEGIYYSVGNKFHVTSMTLPPGERREITLETIGNLDLLGIHGISNNNFIARLDKDLKIRLHLLEKELTDHKFVILGANLFLDDLKIMTALSKILQKLNDDPPTLLIWQGSFTSVPVFASMSSRNISSSTQFKNNFDALATLLSRFDNLTENTTMIFIPGPNDLWGSMVSLGASGTLPQDPIPSAFTKKINKVCKNVVWSSNPTRIAYLSQEIVIFRDDLSGRFKRHRLEFPFNESEDVYTENDNMMSKDTDIVPIDELVKEPDQLPQKVQETRKLVKTILDQGHLSPFLDSLRPISWDLDHTLTLCPIPSTMVLCDTTSAQFDLTYNGCKVINPGSFIHNRRARYMEYVPSSKKTIQEEIYI
B7: Wild type Pol2 fragment 2103–2222 (domain or fragment, UniProt P21951 2103-2222)
chain: VPDFLCEYCFFISDIDFCKAAPESIFSCVRCHKAFNQVLLQEHLIQKLRSDIESYLIQDLRCSRCHKVKRDYMSAHCPCAGAWEGTLPRESIVQKLNVFKQVAKYYGFDILLSCIADLTI
B8: Pol2 fragment 2103–2222 mutated for CysA (C2108S C2111S) (domain or fragment, UniProt P21951 2103-2222)
chain: B7 chain with C6S, C9S
B9: Pol2 fragment 2103–2222 mutated for CysB (C2164S C2167S) (domain or fragment, UniProt P21951 2103-2222)
chain: B7 chain with C62S, C65S

Target: SUMO (Smt3AAΔ, an allele that cannot be used as a moiety for SUMOylation) (budding yeast)
Test: two-hybrid; Gal4-based, pGADT7 and pGBKT7 derivatives in strain PJ69-4A; growth on SC lacking Trp, Leu, His (weak) or Trp, Leu, His, Ade (strong selection); serial dilutions

Row | binding | Binder
1 | no binding | B1
2 | no binding | B2
3 | no binding | B3
4 | binds | B4
5 | no binding | B5
6 | no binding | B6
7 | binds | B7
8 | binds | B8
9 | binds | B9
